Data published in patent US6683029B1, “Halopyrimidines” (Bayer Aktiengesellschaft, priority 1999, dated 2004).
Some entries share one result that the patent states for a list of compounds.

Test system: Sphaerotheca fuliginea
Assay: Sphaerotheca test (cucumber)/protective
Type: in vivo
Conditions: protective, application rate 750 g/ha, evaluation 7 days after inoculation

SMILES | efficacy [%]
CON=C(C(=O)OC)c1ccccc1Oc1ncnc(Oc2cc(C)ccc2C)c1F [Example 5] | ≥ 90
CON=C(C(=O)OC)c1ccccc1Oc1ncnc(Oc2ccccc2)c1F [Example 9] | ≥ 90
